Data published in PubChem BioAssay AID504834 (National Center for Advancing Translational Sciences (NCATS), 2011).
Screen size: about 320,000 compounds; about 22,000 (6.9%) were called active. Inconclusive results, whose numbers are uncertain, are shown with a selection of clear calls. Calls come from the whole dose curve; as a rule, active = well fitted inhibition curve with a large enough effect; inconclusive = small, poorly fitted or top-dose-only effect, or another doubt; inactive = no such curve, though single readings can be large or run the other way. A potency beside an inconclusive call is a rough fit, not a confirmed value.

assay: Primary qHTS for delayed death inhibitors of the malarial parasite plastid, 96 hour incubation; conditions: P. falciparum luciferase reporter growth; series mostly up to 28.7 µM; activity change, negative = inhibition: at the top concentration
How it was run: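 Parasite growth measured via integrated firefly luciferase reporter in P. falciparum. Infected erythrocytes at 2% hematocrit, 0.05% parasitemia final were treated 96 hours at 37 C under 5% CO2, and luminescence was read.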
% is set by controls: 0 for no effect and ±100 for the full control effect; potency is the fitted concentration of half-maximal effect.

Question: For `CCOC(=O)C(C#N)=C(c1ccccc1)c1ccccc1`, which Potency is on record?
Answer: inconclusive: 6.75 µM [inhibitor, partial curve, poor fit]

Question: With `O=P(Nc1ccccc1)(Oc1ccccc1)Oc1ccccc1` as the compound, how does the “activity change, negative = inhibition” value read?
Answer: inactive: 29.9%

Question: Which Potency does the source give for `CCCN1Cc2cccc(C(=O)N3CCN(c4cc(Cl)ccc4C)CC3)c2C1=O` here?
Answer: inconclusive: 18.5 µM [inhibitor, single point]

Question: Which “activity change, negative = inhibition” value does the source give for `O=C(O)c1ccc(S(=O)(=O)N[C@@H](Cc2ccc(O)cc2)C(=O)O)cc1` here?
Answer: inactive: 3.34%

Question: With `Cc1nc(NCCc2ccc(F)cc2)c(C#N)c(C)c1[N+](=O)[O-]` as the compound, how does the Potency read?
Answer: inconclusive: 13.1 µM [inhibitor, partial curve, poor fit]

Question: With `CCN(CC)C(=O)N1c2ccccc2Sc2ccccc21` as the compound, how does the Potency read?
Answer: inconclusive: 18.5 µM [inhibitor, single point]

Question: With `O=C1c2ccccc2C(=O)N1CCOc1ccccc1Cl` as the compound, how does the “activity change, negative = inhibition” value read?
Answer: inactive: -45.9%

Question: For `O=C(Cc1cccc2ccccc12)N/N=C1\CCCc2ccccc21`, which Potency is on record?
Answer: inconclusive: 18.5 µM [inhibitor, single point]

Question: For `O=C(CCCn1c(=O)c2cccn2c2cccnc21)N1CCN(c2ccccc2F)CC1`, which Potency is on record?
Answer: inconclusive: 11.7 µM [inhibitor, single point]

Question: Which Potency does the source give for `COc1ccc(N2CCN(c3ccc4nnc(CCC(=O)Nc5ccc(C)cc5)n4n3)CC2)cc1` here?
Answer: inconclusive: 18.5 µM [inhibitor, single point]

Question: For `Cc1ccc(-c2nn(C)c(=O)c3ccccc23)cc1CNC(=O)c1ccccc1`, which Potency is on record?
Answer: inconclusive: 14.7 µM [inhibitor, single point]

Question: For `CN(C)/C=C1\C(=O)ON=C1c1ccccc1`, which “activity change, negative = inhibition” value is on record?
Answer: inactive: 2.71%

Question: Which Potency does the source give for `C=CCNC(=O)COC(=O)c1ccc(Cl)c(S(N)(=O)=O)c1` here?
Answer: inconclusive: 0.415 µM [inhibitor, full curve, poor fit]

Question: For `CCOC(=O)N1CCC(NC(=O)C2CCCN(Cc3nc(-c4cccc(C)c4)oc3C)C2)CC1` (centres undefined), which “activity change, negative = inhibition” value is on record?
Answer: inactive: -1.8%

Question: Which Potency does the source give for `Cn1c(SCC(=O)N2CCN(c3cccc(Cl)c3)CC2)nnc1-c1ccncc1` here?
Answer: inconclusive: 11.7 µM [inhibitor, partial curve]

Question: Which Potency does the source give for `COc1ccccc1/C=N/N1C(=O)C(CC(=O)Nc2ccc([N+](=O)[O-])cc2OC)SC1=Nc1cccc(C)c1C` (centres undefined) here?
Answer: inconclusive: 0.928 µM [inhibitor, partial curve, poor fit]

Question: For `COc1cc2c(cc1OC)C(c1cccc([N+](=O)[O-])c1)N(C(=O)c1ccc(F)cc1)CC2` (centres undefined), which “activity change, negative = inhibition” value is on record?
Answer: inactive: 122%

Question: For `CCCCNC(=S)N/N=C/c1cccc(OCC)c1O`, which Potency is on record?
Answer: active: 1.47 µM

Question: With `COCCCN1C(=O)C(=O)/C(=C(/O)c2ccc(OCC(C)C)cc2C)C1c1cccnc1` (centres undefined) as the compound, how does the Potency read?
Answer: inconclusive: 14.7 µM [inhibitor, partial curve, poor fit]

Question: For `Cc1c(C)c2ccc(OC(C)C(=O)NCCc3c[nH]c4ccccc34)cc2oc1=O` (centres undefined), which Potency is on record?
Answer: inconclusive: 13.1 µM [inhibitor, single point]

Question: With `O=C1Nc2ccccc2CCC1Sc1nnc(-c2ccc(Cl)cc2)s1` (centres undefined) as the compound, how does the Potency read?
Answer: inconclusive: 14.7 µM [inhibitor, partial curve, poor fit]

Question: For `COc1cc(/C=C/C(=O)OCC(=O)NCc2ccco2)cc(OC)c1OC`, which Potency is on record?
Answer: inconclusive: 0.329 µM [inhibitor, partial curve, poor fit]

Question: With `CCn1nccc1C(=O)Nc1nccs1` as the compound, how does the activity change, negative = inhibition read?
Answer: inactive: 1.78% [at 5.75 µM]

Question: Which Potency does the source give for `COc1ccc(NC(=O)C2CCC(CNc3c(N4CCCCC4)c(=O)c3=O)CC2)cc1OC` (centres undefined) here?
Answer: inconclusive: 11.7 µM [inhibitor, single point]

Question: For `COc1ccc(/C=C/C(=O)OC2CCCN(C)C2)cc1` (centres undefined), which Potency is on record?
Answer: inconclusive: 18.5 µM [inhibitor, single point]

Question: Which Potency does the source give for `CN(CC(=O)Nc1ccccc1Cl)C1CCCCC1` here?
Answer: inconclusive: 13.1 µM [inhibitor, single point]

Question: With `COc1cccc(/C=N/NC(=O)CN(C2=NS(=O)(=O)c3ccccc32)c2ccccc2)c1` as the compound, how does the Potency read?
Answer: inconclusive: 0.928 µM [inhibitor, partial curve]

Question: Which Potency does the source give for `C=CCSc1nc2[nH]ncc2c(=O)[nH]1` here?
Answer: inconclusive: 2.62 µM [inhibitor, full curve, poor fit]

Question: Which Potency does the source give for `CC(=O)Oc1ccc(/C=C2\C=C(c3ccc(C)cc3)OC2=O)cc1` here?
Answer: inconclusive: 18.5 µM [inhibitor, single point]

Question: For `CC1(C)CC(=NOC(=O)c2ccccc2)CC(C)(C)N1O`, which “activity change, negative = inhibition” value is on record?
Answer: inactive: 213%

Question: With `O=C(Nc1cccc(C(F)(F)F)c1)c1cccc(NS(=O)(=O)c2ccc(O)c(C(=O)O)c2)c1` as the compound, how does the “activity change, negative = inhibition” value read?
Answer: inactive: -8.02%

Question: With `COc1cc(CO)ccc1OCC(=O)Nc1ccc(Br)cc1` as the compound, how does the Potency read?
Answer: inconclusive: 1.47 µM [inhibitor, partial curve]

Question: With `Oc1ccc(NCc2ccc(OCc3ccccc3)cc2)cc1` as the compound, how does the “activity change, negative = inhibition” value read?
Answer: inactive: 2.81%

Question: For `O=C(CSc1nc2ccccc2n1CC(=O)N1CCCC1)Nc1nccs1`, which Potency is on record?
Answer: active: 2.62 µM

Question: For `Cc1cc(F)ccc1NCC(=O)Nc1ccccc1Br`, which Potency is on record?
Answer: inconclusive: 10.4 µM [inhibitor, single point]

Question: With `COc1ccc(C(=O)NCCCNC(=O)c2cccnc2)cc1Br` as the compound, how does the Potency read?
Answer: inconclusive: 18.5 µM [inhibitor, single point]

Question: With `Cc1ccc(S(=O)(=O)N2CCN=C2SC(C)c2ccccc2)cc1` (centres undefined) as the compound, how does the Potency read?
Answer: inconclusive: 13.1 µM [inhibitor, single point]

Question: Which Potency does the source give for `COc1ccc(S(=O)(=O)NNc2nc(C)cc(C)n2)cc1[N+](=O)[O-]` here?
Answer: inconclusive: 18.5 µM [inhibitor, partial curve, poor fit]

Question: For `O=C(C[n+]1ccc(/C=N/O)cc1)NC(=O)Nc1ccccc1`, which “activity change, negative = inhibition” value is on record?
Answer: inactive: 12.7%

Question: Which “activity change, negative = inhibition” value does the source give for `Cc1ccc(S(=O)(=O)N2[C@@H](c3cccc(Cl)c3)C(C(=O)O)=CC[C@H]2c2cccs2)cc1` here?
Answer: inactive: 35.7%

Question: With `CCOc1ccc(Oc2cc(NC(=O)c3ccco3)cc([N+](=O)[O-])c2)cc1` as the compound, how does the Potency read?
Answer: active: 1.65 µM

Question: With `CNC1C(OC2C(O[C@@H]3C(O)C(O)[C@@H](N=C(N)N)C(O)C3N=C(N)N)OC(C)[C@@]2(O)CO)OC(CO)C(O)C1O` (some centres undefined) as the compound, how does the “activity change, negative = inhibition” value read?
Answer: inactive: 5.41%

Question: With `Cc1nc2ccc([N+](=O)[O-])cc2c(=O)n1Cc1ccccc1Br` as the compound, how does the Potency read?
Answer: inconclusive: 5.22 µM [inhibitor, partial curve, poor fit]

Question: Which Potency does the source give for `Cc1ccc(S(=O)(=O)N(C)Cc2ccc(C(=O)N/N=C3\CC(=O)CC(C)(C)C3)cc2)cc1` here?
Answer: inconclusive: 10.4 µM [inhibitor, partial curve, poor fit]
